Experimental data reported in PMC7979924.
No constants are given. Whether binding was seen depends on the method and setting. For some of these results: Binding seen in cells or lysates may run through a third protein. For some of these results: Where a sequence is shown, tags or fusion partners need not be part of it.

The chains behind the UniProt entries cited, without tags or fusion partners. Where a name states a change or a piece, a line headed by the entry shows the natural chain unless it says otherwise. Residues count along the entry.
UniProt P67809: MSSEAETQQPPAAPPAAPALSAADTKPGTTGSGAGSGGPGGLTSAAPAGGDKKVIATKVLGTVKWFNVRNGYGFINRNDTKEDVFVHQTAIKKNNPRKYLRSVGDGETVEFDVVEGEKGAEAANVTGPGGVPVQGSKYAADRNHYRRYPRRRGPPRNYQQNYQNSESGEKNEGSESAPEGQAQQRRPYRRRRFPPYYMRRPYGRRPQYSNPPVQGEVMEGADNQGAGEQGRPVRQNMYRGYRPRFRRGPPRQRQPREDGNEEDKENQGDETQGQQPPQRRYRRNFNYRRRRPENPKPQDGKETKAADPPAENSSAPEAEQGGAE
YB-1-CSD (1–180 aa.): residues 1-180 of P67809
UniProt P35637, residues 165-385: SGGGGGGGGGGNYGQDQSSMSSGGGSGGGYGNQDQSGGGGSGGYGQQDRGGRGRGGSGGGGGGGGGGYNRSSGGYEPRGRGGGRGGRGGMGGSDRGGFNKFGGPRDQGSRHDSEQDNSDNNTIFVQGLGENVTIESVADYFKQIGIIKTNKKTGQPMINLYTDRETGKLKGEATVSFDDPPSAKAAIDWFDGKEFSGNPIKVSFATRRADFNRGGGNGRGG
UniProt Q13148, residues 101-277: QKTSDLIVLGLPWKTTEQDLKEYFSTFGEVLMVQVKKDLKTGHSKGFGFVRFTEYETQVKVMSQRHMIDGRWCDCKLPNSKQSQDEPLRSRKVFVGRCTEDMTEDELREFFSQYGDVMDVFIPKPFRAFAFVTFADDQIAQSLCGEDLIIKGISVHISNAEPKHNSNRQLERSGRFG

What was measured:
[1] = molecular target: T1, GFP-labeled full length LARP6 (UniProt Q9BRS8); assay: proximity ligation; HeLa cells expressing the GFP-labelled protein for 24 h; anti-YB-1 and anti-GFP primary antibodies; PLA signal plotted against GFP intensity at the single cell level
T1 sequence: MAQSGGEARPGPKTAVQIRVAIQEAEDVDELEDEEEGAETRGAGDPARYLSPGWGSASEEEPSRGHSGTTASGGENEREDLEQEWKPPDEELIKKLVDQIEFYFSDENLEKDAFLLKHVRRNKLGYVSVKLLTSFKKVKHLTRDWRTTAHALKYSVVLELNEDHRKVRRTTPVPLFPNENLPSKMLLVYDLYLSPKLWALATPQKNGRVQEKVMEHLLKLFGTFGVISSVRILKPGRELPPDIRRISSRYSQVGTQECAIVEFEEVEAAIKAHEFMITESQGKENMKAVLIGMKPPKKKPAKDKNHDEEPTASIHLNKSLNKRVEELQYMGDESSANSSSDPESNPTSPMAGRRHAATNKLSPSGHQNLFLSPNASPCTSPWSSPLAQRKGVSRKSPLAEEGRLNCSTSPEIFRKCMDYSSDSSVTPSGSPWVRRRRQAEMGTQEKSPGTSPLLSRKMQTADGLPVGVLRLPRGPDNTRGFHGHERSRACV

[2] = molecular target: YB-1-CSD (1–180 aa.) (human) (UniProt P67809); assay: native gel or EMSA; Supplementary Fig. S3a; the text speaks of mRNA and of ssDNA, the methods of circular phage ssDNA M13mp18 0.07 μM (agarose 0.8%, TAE 1X) and DNA stem loops; Tris 20 mM pH 7.6, NaCl 40 mM, DTT 0.5 mM, room temperature 30 min; nucleic acid added last; both purified
[3] = molecular target: T2, Lin28 – C-ter (truncation, 117–209 aa.) fused to RFP-MBD (human) (UniProt Q9H9Z2); assay: microtubule bench assay (a GFP-labelled prey is brought onto microtubules by a bait fused to RFP-MBD); HeLa cells co-expressing bait (RFP-MBD fusion, on microtubules) and GFP-labelled prey for 24 h; fixed with methanol then PFA; Spearman's coefficient or prey versus bait intensity on microtubules
T2 sequence: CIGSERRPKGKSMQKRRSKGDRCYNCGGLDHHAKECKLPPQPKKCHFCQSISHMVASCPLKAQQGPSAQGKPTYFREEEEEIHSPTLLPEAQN

binding [2] | Substance | further results
– | endogenous YB-1 (from UniProt P67809 1-324) | binding [1]: no binding
no binding | FUS (RRM, 165–385aa.) (from UniProt P35637-1 165-385) (domain or fragment) | –
– | GFP-labeled full length YB-1 (prey) (from UniProt P67809 1-324) | binding [3]: no binding
no binding | TDP43 (RRM 1–2, 101–277aa.) (from UniProt Q13148-1 101-277) (domain or fragment) | –
